Results on two compounds are retold here after patent US12203124B2, “Methods for improved rapid antimicrobial susceptibility testing” (priority 2016, dated 2025).

In the series the test system is K. pneumoniae. Briefly: Metabolic assay, percent correct score versus algorithmically called MIC. Format: cell-based. The following applies: more than 30 strains.

Regarding `CO/N=C(\C(=O)N[C@@H]1C(=O)N2C(C(=O)O)=C(CSc3nc(=O)c(=O)[nH]n3C)CS[C@H]12)c1csc(N)n1` [CRO, Ceftriaxone], the “percent correct score, agreement with algorithmically called MIC” value came to 100%.
For Gentamycin the value was 83%.
